Results are given in words; binding and its absence hold for the method and conditions named. In cells and extracts the contact can be indirect. Some results given as binding are weak or reduced against the parent protein; the word gives no strength. Sequences can lack the tags named with a protein.
Tests used:
[1] = biological target: Lrp4 ectodomain fused to the constant region of Immunoglobulin G (Lrp4ecto-Fc) (UniProt Q8VI56); assay: pull-down; cell free: LRP4ecto-Fc from conditioned medium bound to Protein A-Agarose beads, incubated with pre-cleared media of AP-tagged proteins at 4°C overnight, washed four times with PBS, blot with anti-AP antibody
[2] = biological target: Lrp4 (full length, overexpressed in HEK293A cells) (UniProt Q8VI56); assay: co-IP; HEK293A cells transfected with full length LRP4 incubated with conditioned media of AP-tagged proteins at 37°C for 1 h, cross-linked with dithiobis[succinimidylpropionate] (250 µM), lysed in 1% Triton X-100 buffer; immunoprecipitation with anti-AP antibody and Protein A-Agarose, blot with anti-Lrp4 antibodies

Chains of the proteins cited; added tags and fusions are not shown. Lines headed by an entry give the natural chain unless they say otherwise; changes in a name come on top. A line that says so, or that is headed by a name, gives the form on record, which may keep a tag or linker. Residues count along the entry.
UniProt Q8VI56: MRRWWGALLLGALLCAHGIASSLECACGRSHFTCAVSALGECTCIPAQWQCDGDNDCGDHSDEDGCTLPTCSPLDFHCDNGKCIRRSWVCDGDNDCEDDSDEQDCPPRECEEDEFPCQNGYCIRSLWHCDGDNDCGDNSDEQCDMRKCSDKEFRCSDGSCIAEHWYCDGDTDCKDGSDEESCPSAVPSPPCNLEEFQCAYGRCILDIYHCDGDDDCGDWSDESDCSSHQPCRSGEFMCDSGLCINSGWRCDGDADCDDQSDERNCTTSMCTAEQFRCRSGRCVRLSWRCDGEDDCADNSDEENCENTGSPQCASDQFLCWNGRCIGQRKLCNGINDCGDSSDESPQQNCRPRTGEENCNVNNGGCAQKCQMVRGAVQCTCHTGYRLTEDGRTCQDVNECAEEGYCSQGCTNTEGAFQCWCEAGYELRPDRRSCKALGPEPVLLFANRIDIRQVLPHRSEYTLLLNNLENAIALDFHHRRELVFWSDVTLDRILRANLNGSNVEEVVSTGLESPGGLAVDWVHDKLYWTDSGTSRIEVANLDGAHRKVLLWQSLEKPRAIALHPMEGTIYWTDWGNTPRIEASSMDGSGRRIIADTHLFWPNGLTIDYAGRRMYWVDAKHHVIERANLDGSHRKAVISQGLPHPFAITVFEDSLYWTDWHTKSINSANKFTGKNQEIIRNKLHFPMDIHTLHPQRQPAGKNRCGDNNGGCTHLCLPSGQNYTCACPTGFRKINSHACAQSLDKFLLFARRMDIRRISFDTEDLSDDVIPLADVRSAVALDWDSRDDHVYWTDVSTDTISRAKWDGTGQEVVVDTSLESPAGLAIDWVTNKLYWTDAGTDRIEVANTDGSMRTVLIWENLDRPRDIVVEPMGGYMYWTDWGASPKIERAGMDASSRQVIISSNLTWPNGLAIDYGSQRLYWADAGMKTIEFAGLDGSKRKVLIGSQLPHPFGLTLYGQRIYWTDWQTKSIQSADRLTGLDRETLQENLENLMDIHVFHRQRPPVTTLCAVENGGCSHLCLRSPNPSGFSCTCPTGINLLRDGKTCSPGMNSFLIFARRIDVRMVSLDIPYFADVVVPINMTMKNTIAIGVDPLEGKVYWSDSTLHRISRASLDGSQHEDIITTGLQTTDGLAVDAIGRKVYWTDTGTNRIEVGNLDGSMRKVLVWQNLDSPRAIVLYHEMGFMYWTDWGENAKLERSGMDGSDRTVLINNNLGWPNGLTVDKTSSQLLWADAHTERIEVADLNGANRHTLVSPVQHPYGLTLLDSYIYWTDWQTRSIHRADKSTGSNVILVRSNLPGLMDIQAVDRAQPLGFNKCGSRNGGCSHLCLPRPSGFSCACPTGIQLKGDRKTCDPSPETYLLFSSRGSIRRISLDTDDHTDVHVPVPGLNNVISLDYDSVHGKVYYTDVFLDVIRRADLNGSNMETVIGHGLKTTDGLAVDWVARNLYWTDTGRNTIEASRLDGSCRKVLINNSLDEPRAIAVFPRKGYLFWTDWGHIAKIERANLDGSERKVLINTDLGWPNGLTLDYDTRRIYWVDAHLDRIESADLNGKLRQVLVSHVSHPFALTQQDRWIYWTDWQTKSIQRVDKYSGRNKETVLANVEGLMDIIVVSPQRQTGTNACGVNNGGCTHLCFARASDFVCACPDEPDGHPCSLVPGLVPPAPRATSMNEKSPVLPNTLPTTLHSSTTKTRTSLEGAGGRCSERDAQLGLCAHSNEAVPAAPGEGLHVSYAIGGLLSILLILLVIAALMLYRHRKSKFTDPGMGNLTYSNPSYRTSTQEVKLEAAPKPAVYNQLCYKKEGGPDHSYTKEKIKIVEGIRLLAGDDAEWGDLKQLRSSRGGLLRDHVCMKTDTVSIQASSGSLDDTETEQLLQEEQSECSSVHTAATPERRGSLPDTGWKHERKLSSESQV
Lrp4 (full length, overexpressed in HEK293A cells): residues 21-1905 of Q8VI56
Lrp4 ectodomain fused to the constant region of Immunoglobulin G (Lrp4ecto-Fc): residues 21-1725 of Q8VI56

binding [1]: binds
binding [2]: binds
B1: Dickkopf1 (Dkk1) alkaline phosphatase fusion protein (ligand, UniProt O54908 32-272)
chain: TLNSVLINSNAIKNLPPPLGGAGGQPGSAVSVAPGVLYEGGNKYQTLDNYQPYPCAEDEECGSDEYCSSPSRGAAGVGGVQICLACRKRRKRCMRHAMCCPGNYCKNGICMPSDHSHFPRGEIEESIIENLGNDHNAAAGDGYPRRTTLTSKIYHTKGQEGSVCLRSSDCAAGLCCARHFWSKICKPVLKEGQVCTKHKRKGSHGLEIFQRCYCGEGLACRIQKDHHQASNSSRLHTCQRH
